No constants are given. Whether binding was seen depends on the method and setting. In cells and extracts the contact can be indirect. Some entries that bind do so weakly or less than the wild type.

Protein sequences, listed by entry. Tags and fused reporters are not part of them. Residues count along the entry.
UniProt O75460, residues 19-977: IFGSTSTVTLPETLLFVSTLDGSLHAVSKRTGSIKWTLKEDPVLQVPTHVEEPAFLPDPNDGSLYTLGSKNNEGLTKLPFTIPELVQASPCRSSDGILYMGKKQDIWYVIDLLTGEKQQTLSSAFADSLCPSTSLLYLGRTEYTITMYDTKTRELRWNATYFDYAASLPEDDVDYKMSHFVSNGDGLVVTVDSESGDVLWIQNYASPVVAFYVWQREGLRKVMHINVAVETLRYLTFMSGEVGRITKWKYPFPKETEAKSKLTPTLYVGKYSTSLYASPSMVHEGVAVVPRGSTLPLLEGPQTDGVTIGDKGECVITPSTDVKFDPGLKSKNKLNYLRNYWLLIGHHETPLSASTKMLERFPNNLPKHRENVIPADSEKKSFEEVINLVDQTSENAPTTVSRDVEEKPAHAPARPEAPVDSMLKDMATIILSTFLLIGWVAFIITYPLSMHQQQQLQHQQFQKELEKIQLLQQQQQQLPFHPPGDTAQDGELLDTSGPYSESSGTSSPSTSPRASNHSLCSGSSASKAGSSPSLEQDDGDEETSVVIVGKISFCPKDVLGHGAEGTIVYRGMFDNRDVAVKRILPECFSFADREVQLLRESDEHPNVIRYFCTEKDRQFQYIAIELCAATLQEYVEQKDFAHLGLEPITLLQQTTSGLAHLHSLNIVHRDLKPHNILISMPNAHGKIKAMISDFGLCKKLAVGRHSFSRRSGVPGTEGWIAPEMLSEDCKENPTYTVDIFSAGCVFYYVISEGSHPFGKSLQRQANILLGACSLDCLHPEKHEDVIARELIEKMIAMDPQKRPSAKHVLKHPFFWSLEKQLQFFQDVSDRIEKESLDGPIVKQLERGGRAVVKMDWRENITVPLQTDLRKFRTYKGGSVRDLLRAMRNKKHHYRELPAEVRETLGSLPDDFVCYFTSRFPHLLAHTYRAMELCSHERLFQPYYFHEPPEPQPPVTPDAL
UniProt P0DMV8: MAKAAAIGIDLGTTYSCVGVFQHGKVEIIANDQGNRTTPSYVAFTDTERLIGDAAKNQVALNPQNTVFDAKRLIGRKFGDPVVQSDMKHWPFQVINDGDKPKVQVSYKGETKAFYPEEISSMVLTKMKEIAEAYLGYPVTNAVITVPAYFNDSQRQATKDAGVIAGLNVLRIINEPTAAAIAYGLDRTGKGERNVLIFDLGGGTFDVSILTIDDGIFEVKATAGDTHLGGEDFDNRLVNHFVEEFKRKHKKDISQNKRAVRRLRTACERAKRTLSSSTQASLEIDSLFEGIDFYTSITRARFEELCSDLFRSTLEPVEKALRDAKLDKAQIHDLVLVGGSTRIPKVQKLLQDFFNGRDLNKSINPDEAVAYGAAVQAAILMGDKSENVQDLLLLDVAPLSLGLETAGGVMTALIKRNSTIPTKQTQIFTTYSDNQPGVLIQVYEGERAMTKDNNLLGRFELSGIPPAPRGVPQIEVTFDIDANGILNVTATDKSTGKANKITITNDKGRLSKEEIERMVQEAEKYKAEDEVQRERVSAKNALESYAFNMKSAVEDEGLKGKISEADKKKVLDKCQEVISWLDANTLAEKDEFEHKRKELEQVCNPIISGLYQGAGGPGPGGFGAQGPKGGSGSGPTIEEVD
UniProt P63018: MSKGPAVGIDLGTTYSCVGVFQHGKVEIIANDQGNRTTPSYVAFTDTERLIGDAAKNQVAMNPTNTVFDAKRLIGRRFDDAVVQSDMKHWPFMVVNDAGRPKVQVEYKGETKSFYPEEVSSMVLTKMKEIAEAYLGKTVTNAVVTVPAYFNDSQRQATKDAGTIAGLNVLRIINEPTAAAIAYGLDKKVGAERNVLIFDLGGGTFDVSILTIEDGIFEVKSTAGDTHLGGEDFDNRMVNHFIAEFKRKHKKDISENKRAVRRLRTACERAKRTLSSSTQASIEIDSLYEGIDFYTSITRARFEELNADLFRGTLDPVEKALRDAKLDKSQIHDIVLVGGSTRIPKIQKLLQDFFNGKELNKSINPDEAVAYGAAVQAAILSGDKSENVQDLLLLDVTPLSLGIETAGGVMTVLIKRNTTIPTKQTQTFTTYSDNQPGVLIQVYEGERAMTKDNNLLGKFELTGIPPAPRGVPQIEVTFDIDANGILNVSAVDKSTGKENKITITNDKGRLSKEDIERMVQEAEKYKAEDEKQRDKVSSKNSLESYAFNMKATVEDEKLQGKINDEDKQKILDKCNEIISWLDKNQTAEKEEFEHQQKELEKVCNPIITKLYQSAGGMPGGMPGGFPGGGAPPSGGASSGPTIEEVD

In assay [1] the target is IRE1α FL-HA, expressed in PC12 cells (UniProt O75460). Kind of assay: co-IP; lysates of PC12 cells expressing Hsp72 constructs and transfected with HA-tagged IRE1α constructs; HA-agarose (Pierce HA tagged IP/Co-IP kit) overnight, washed with TBS 0.05% Tween, Western blot; cells untreated or treated with 0.25 µM thapsigargin for 12 h.
Assay [2] addresses endogenous Hsp72 of HEK 293 cells (human (endogenous in HEK 293)) (UniProt P0DMV8). Nature of the assay: co-IP; lysates of HEK 293 cells transiently transfected with IRE1α FL-HA or empty vector; endogenous Hsp72 immunoprecipitated with anti-Hsp72 polyclonal antibody (Stressgen SPA-811) overnight at 4°C and protein A-Sepharose, washed with TBS-0.05% Tween, Western blot for IRE1α.

Assay [3] addresses IRE1α FL-HA, expressed in HEK 293 cells (UniProt O75460). Kind of assay: co-IP; lysates of HEK 293 cells transiently transfected with IRE1α FL-HA (48 h); IRE1α FL-HA immunoprecipitated, Western blot for endogenous Hsp72.

In the case of “Hsc70, the constitutive form of Hsp72 (from UniProt P63018 1-646)”, the binding result in assay [1] is recorded as “no binding”.
Consider “Hsp72 (wild type), stably expressed in PC12 cells (from UniProt P0DMV8 1-641)”, for which the binding result in assay [1] was “binds”.
Turning to “IRE1α FL-HA, expressed in HEK 293 cells (from UniProt O75460 19-977)”, in assay [2], the binding entry is recorded as “binds”.
With “endogenous IRE1α of HEK 293 cells (from UniProt O75460 19-977)”, in assay [2], the binding result is recorded as “binds”.
Consider “endogenous Hsp72 of HEK 293 cells (from UniProt P0DMV8 1-641)”, for which the binding result in assay [3] is given as “binds”.

These data come from article PMC2897763.
